Results: PMC1904233
These are yes or no findings as the source states them, for the method shown. In cells and extracts the contact can be indirect. Some entries that bind do so weakly or less than the wild type.

Amino acid sequences for entries named in this document (tags omitted).
UniProt O96621: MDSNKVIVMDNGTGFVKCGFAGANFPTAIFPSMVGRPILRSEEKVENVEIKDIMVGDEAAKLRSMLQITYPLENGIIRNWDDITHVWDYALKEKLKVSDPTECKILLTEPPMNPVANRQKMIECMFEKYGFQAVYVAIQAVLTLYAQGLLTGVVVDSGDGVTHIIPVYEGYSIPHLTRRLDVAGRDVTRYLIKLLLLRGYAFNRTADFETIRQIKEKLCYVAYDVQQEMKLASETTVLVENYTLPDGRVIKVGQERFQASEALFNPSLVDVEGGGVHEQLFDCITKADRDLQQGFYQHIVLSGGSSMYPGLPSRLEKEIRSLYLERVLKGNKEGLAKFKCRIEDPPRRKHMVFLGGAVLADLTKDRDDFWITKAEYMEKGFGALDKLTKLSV
UniProt P42528: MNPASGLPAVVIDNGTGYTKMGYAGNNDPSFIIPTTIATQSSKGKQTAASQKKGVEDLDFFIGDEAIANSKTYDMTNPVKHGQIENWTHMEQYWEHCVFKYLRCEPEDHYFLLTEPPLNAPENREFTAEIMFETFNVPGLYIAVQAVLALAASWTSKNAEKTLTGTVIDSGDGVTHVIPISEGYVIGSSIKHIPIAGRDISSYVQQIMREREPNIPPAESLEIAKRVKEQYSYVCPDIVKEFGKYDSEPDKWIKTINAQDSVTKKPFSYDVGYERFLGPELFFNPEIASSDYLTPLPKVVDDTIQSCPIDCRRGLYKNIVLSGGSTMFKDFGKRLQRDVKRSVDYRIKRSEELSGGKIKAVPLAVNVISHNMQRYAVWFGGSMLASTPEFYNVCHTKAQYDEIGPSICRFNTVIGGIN

B1: Dictyostelium p21-arc subunit of the Arp2/3 complex (protein, UniProt O96624 1-174)
chain: MVYHSQFNDESAGFRLVGNVPILPLKTTHKGPAPKGDANSVDIIDEALDLFKANILFRNFEVQGNGDRVLIYLTLYITKCLLKIAPMNKADAEKALFLIAQEQFSIPGESAFPLGGLVTVPNTRDAADTLRQYFTQLRLELGVRLCQRVYAVDPSKANKWWICFSKRKFLNKAL

Target: myc-tagged Dictyostelium replacement Arp2 (Dictyostelium discoideum) (UniProt O96621)
Assay: co-IP; cleared cell lysates (50 mM Tris pH 8.0, 100 mM NaCl, 1 mM EDTA, 1% Triton X-100, protease inhibitors) incubated with mAb 9E10 anti-myc bound to protein G-sepharose, 1 hr at 4°C, 4 washes; blots probed with antibodies to Dictyostelium Arp2, Arp3 and p21-arc

Molecule | binding
Dictyostelium Arp3 (from UniProt P42528 1-418) | binds
B1 | binds
